Values of other authors, collected in patent US12319708B2, “Agonists of peroxisome proliferator-activated receptor alpha (PPARα) and methods of use” (The Board of Regents of the University of Oklahoma, priority 2018, dated 2025).
For at least one compound, name, drawing or mass did not settle the structure.

Tested on: diabetic retinopathy in type 2 diabetic patients
Conditions: cited from earlier work

CC(C)(Oc1ccc(C(=O)c2ccc(Cl)cc2)cc1)C(=O)O [Fenofibric acid, fenofibric acid, reference compound]
reduction of the need for laser treatment: 32-40%
